# Results published in the supplement of paper PMC12823440, “Inhibitors supercharge kinase turnover through native proteolytic circuits” (Nature, 2025).
# The chains behind the UniProt entries cited, without tags or fusion partners. Where a name states a change or a piece, a line headed by the entry shows the natural chain unless it says otherwise.
# UniProt Q92630: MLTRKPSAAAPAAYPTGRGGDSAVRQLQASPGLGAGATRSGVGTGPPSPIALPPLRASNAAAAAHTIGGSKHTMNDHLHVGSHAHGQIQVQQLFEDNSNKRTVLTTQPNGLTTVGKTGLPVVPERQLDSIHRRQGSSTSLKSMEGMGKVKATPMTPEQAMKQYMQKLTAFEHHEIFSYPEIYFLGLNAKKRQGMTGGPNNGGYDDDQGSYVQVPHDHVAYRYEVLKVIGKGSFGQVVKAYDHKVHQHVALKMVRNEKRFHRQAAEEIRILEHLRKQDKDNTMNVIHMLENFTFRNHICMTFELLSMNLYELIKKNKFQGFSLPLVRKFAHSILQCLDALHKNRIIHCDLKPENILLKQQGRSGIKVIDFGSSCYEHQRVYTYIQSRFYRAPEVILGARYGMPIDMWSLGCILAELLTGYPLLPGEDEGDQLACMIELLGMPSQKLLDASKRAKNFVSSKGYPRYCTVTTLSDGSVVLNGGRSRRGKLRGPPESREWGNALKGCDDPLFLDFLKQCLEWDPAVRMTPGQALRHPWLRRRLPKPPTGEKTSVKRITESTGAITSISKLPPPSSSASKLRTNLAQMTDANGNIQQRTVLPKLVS
# Where a name gives a salt, the structure may show the parent alone. Some of the results follow. Hit calls seldom repeat between salt and free forms of one compound.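 Kinases were expressed as nanoluciferase fusions in K562 cells and luminescence was read every 4 h between 2 and 18 h as percent of control, DMSO set to 100% and a positive control to 0%. A time point counts as decreased when the signal drops significantly (2 sigma). The hit call is the authors' own, does not follow from the count of time points alone, and its rule is not shown.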
# Target: DYRK2 (UniProt Q92630)
# Assay: number of time points (of 5) at which kinase-Nluc abundance scored as decreased, DMSO-normalised (count); higher = more persistent destabilization
# Settings: K562; 2-18 h
row,Structure (SMILES),number of time points
1,CCN1CCN(c2ccc(Nc3cc(N(C)C(=O)Nc4c(Cl)c(OC)cc(OC)c4Cl)ncn3)cc2)CC1 [Infigratinib] (10 µM),0
2,COc1c(CC=C(C)C)c(O)cc2oc(=O)c(-c3ccc(O)cc3O)cc12 [Glycycoumarin] (10 µM),0
3,Cc1cc(C(=O)Nc2cccc(C(=O)Nc3cccc(C(F)(F)F)c3)c2)on1 (10 µM),0
4,Cn1c(=O)c(Oc2ccc(F)cc2F)cc2cnc(NC3CCOCC3)nc21 [R1487 (Hydrochloride)] (10 µM),0

# Target: EGFR (UniProt P00533)
# Assay: as above
# Settings: K562; 2-18 h
row,Structure (SMILES),number of time points
1,Cc1cccc([C@@H](CO)NC(=O)[C@@H](C)N2Cc3ccc(-c4nc(NC5CCOCC5)ncc4Cl)cc3C2=O)c1 [ERK1/2 inhibitor 1] (10 µM),0
2,Cc1c(Cn2c(C)nc3c(C(=O)O)cc(N4CCOCC4)cc32)cccc1C(F)(F)F (10 µM),0
3,Cc1cc(F)c(C(=O)Nc2cccc(-c3nncn3C(C)C)n2)cc1-n1cnc(C2CC2)c1 [Selonsertib] (10 µM),0
4,COc1c(CC=C(C)C)c(O)cc2oc(=O)c(-c3ccc(O)cc3O)cc12 [Glycycoumarin] (10 µM),0
5,Cc1cc(C(=O)Nc2cccc(C(=O)Nc3cccc(C(F)(F)F)c3)c2)on1 (10 µM),0

# Target: EGFR_G719S (UniProt P00533)
# Assay: as above
# Settings: K562; 2-18 h
row,Structure (SMILES),number of time points
1,Cc1cccc([C@@H](CO)NC(=O)[C@@H](C)N2Cc3ccc(-c4nc(NC5CCOCC5)ncc4Cl)cc3C2=O)c1 [ERK1/2 inhibitor 1] (10 µM),0
2,Cc1c(Cn2c(C)nc3c(C(=O)O)cc(N4CCOCC4)cc32)cccc1C(F)(F)F (10 µM),0
3,Cc1cc(F)c(C(=O)Nc2cccc(-c3nncn3C(C)C)n2)cc1-n1cnc(C2CC2)c1 [Selonsertib] (10 µM),0
4,COc1c(CC=C(C)C)c(O)cc2oc(=O)c(-c3ccc(O)cc3O)cc12 [Glycycoumarin] (10 µM),0
5,Cc1cc(C(=O)Nc2cccc(C(=O)Nc3cccc(C(F)(F)F)c3)c2)on1 (10 µM),0

# Target: EGFR_G719S_T790M (UniProt P00533)
# Assay: as above
# Settings: K562; 2-18 h
row,Structure (SMILES),number of time points
1,Cc1cccc([C@@H](CO)NC(=O)[C@@H](C)N2Cc3ccc(-c4nc(NC5CCOCC5)ncc4Cl)cc3C2=O)c1 [ERK1/2 inhibitor 1] (10 µM),0
2,Cc1cc(F)c(C(=O)Nc2cccc(-c3nncn3C(C)C)n2)cc1-n1cnc(C2CC2)c1 [Selonsertib] (10 µM),0
3,COc1c(CC=C(C)C)c(O)cc2oc(=O)c(-c3ccc(O)cc3O)cc12 [Glycycoumarin] (10 µM),0
4,Cc1cc(C(=O)Nc2cccc(C(=O)Nc3cccc(C(F)(F)F)c3)c2)on1 (10 µM),0

# Target: EGFR_L718V (UniProt P00533)
# Assay: as above
# Settings: K562; 2-18 h
row,Structure (SMILES),number of time points
1,Cc1cccc([C@@H](CO)NC(=O)[C@@H](C)N2Cc3ccc(-c4nc(NC5CCOCC5)ncc4Cl)cc3C2=O)c1 [ERK1/2 inhibitor 1] (10 µM),0
2,Cc1cc(F)c(C(=O)Nc2cccc(-c3nncn3C(C)C)n2)cc1-n1cnc(C2CC2)c1 [Selonsertib] (10 µM),0
3,COc1c(CC=C(C)C)c(O)cc2oc(=O)c(-c3ccc(O)cc3O)cc12 [Glycycoumarin] (10 µM),0
4,Cc1cc(C(=O)Nc2cccc(C(=O)Nc3cccc(C(F)(F)F)c3)c2)on1 (10 µM),0

# Target: EGFR_L858R (UniProt P00533)
# Assay: as above
# Settings: K562; 2-18 h
row,Structure (SMILES),number of time points
1,Cc1cccc([C@@H](CO)NC(=O)[C@@H](C)N2Cc3ccc(-c4nc(NC5CCOCC5)ncc4Cl)cc3C2=O)c1 [ERK1/2 inhibitor 1] (10 µM),0
2,Cc1cc(F)c(C(=O)Nc2cccc(-c3nncn3C(C)C)n2)cc1-n1cnc(C2CC2)c1 [Selonsertib] (10 µM),0
3,COc1c(CC=C(C)C)c(O)cc2oc(=O)c(-c3ccc(O)cc3O)cc12 [Glycycoumarin] (10 µM),0
4,Cc1cc(C(=O)Nc2cccc(C(=O)Nc3cccc(C(F)(F)F)c3)c2)on1 (10 µM),0
